Data taken from article PMC5809731.
Results are given in words; binding and its absence hold for the method and conditions named.

Amino acid sequences for entries named in this document (tags omitted). A change or cut given only in a name is not applied to a line headed by its entry. Chains listed by the source or under a name are the forms on record and can include a tag or linker.
B30.2 domain of rhesus TRIM5α (Q0PF16, form named): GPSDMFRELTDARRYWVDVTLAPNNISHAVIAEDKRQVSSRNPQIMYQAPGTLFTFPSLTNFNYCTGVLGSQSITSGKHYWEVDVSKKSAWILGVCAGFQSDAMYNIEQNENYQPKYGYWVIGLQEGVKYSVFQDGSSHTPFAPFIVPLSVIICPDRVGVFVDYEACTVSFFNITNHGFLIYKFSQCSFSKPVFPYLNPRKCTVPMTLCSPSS

Target: B30.2 domain of rhesus TRIM5α (rhesus macaque) (UniProt Q0PF16)
Test: dual-focus fluorescence correlation spectroscopy (2fFCS); both purified

Lysozyme (from UniProt P00698 19-147)
binding: no binding
